PubChem BioAssay AID1259308 | NCATS – 2017
Aim: 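Candidate targets for better recombinant protein yield in mammalian cells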 (primary screen). System: human HEK293 embryonic kidney cells stably expressing firefly luciferase (HEK-CMV-Luc2-Hygro). Reagents: single siRNA against human genes, 0.8 pmol siRNA per well. Time to read-out: 72 h. Measured: 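Luciferase light (ONE-Glo) measured on one replicate plate set and viability (CellTiter-Glo) on the other, scaled to a negative control siRNA, with robust z-scores and luciferase per cell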. Reading the numbers: total luciferase, z-score and total luciferase, % of control: higher = more reporter protein produced. Active means: 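Active when the median/MAD z-score for overall luciferase is greater than 3; a gene was taken forward for validation with new siRNAs if at least two of its three siRNAs passed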. Calls: active = raised luciferase; inactive = no rise.
In all, the deposit lists about 59,000 reagents; shown is a random part of them. Of all reagents, about 1,510 (2.6%) got an active call. 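Calls use total luciferase alone and ignore viability, so some active siRNAs may act by altering cell number.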 Reagents against one gene are numbered here. Not all columns of the deposit are shown.

UMOD (uromodulin) #1: total luciferase, z-score = -2.16; total luciferase, % of control = 38.8; Outcome = inactive
UMOD (uromodulin) #2: total luciferase, z-score = -0.0909; total luciferase, % of control = 80.1; Outcome = inactive
UMOD (uromodulin) #3: total luciferase, z-score = 1.6; total luciferase, % of control = 114; Outcome = inactive
IFI6 (interferon alpha inducible protein 6) #1: total luciferase, z-score = 0.0963; total luciferase, % of control = 83.8; Outcome = inactive
IFI6 (interferon alpha inducible protein 6) #2: total luciferase, z-score = 1.82; total luciferase, % of control = 118; Outcome = inactive
IFI6 (interferon alpha inducible protein 6) #3: total luciferase, z-score = 0.336; total luciferase, % of control = 88.6; Outcome = inactive
SNTB2 (syntrophin beta 2) #1: total luciferase, z-score = -0.0772; total luciferase, % of control = 80.4; Outcome = inactive
SNTB2 (syntrophin beta 2) #2: total luciferase, z-score = 3.75; total luciferase, % of control = 157; Outcome = active
SNTB2 (syntrophin beta 2) #3: total luciferase, z-score = -1.02; total luciferase, % of control = 61.6; Outcome = inactive
ATF2 (activating transcription factor 2) #1: total luciferase, z-score = -1.52; total luciferase, % of control = 51.7; Outcome = inactive
ATF2 (activating transcription factor 2) #2: total luciferase, z-score = -2.08; total luciferase, % of control = 40.5; Outcome = inactive
ATF2 (activating transcription factor 2) #3: total luciferase, z-score = -0.104; total luciferase, % of control = 79.8; Outcome = inactive
CES4A (carboxylesterase 4A) #1: total luciferase, z-score = 0.607; total luciferase, % of control = 94; Outcome = inactive
CES4A (carboxylesterase 4A) #2: total luciferase, z-score = -0.871; total luciferase, % of control = 64.6; Outcome = inactive
CES4A (carboxylesterase 4A) #3: total luciferase, z-score = 2.22; total luciferase, % of control = 126; Outcome = inactive
NCOA6 (nuclear receptor coactivator 6) #1: total luciferase, z-score = 0.142; total luciferase, % of control = 84.7; Outcome = inactive
NCOA6 (nuclear receptor coactivator 6) #2: total luciferase, z-score = -1.09; total luciferase, % of control = 60.2; Outcome = inactive
NCOA6 (nuclear receptor coactivator 6) #3: total luciferase, z-score = -0.268; total luciferase, % of control = 76.6; Outcome = inactive
DYNLL2 (dynein light chain LC8-type 2) #1: total luciferase, z-score = 1.24; total luciferase, % of control = 107; Outcome = inactive
DYNLL2 (dynein light chain LC8-type 2) #2: total luciferase, z-score = -0.483; total luciferase, % of control = 72.3; Outcome = inactive
DYNLL2 (dynein light chain LC8-type 2) #3: total luciferase, z-score = 0.324; total luciferase, % of control = 88.3; Outcome = inactive
STAG3 (STAG3 cohesin complex component) #1: total luciferase, z-score = 0.595; total luciferase, % of control = 93.7; Outcome = inactive
STAG3 (STAG3 cohesin complex component) #2: total luciferase, z-score = 0.218; total luciferase, % of control = 86.2; Outcome = inactive
STAG3 (STAG3 cohesin complex component) #3: total luciferase, z-score = 0.532; total luciferase, % of control = 92.5; Outcome = inactive
POM121L12 (POM121 transmembrane nucleoporin like 12) #1: total luciferase, z-score = 0.569; total luciferase, % of control = 93.2; Outcome = inactive
POM121L12 (POM121 transmembrane nucleoporin like 12) #2: total luciferase, z-score = 1.51; total luciferase, % of control = 112; Outcome = inactive
POM121L12 (POM121 transmembrane nucleoporin like 12) #3: total luciferase, z-score = -0.8; total luciferase, % of control = 66; Outcome = inactive
MRGPRX3 (MAS related GPR family member X3) #1: total luciferase, z-score = 3.03; total luciferase, % of control = 142; Outcome = active
MRGPRX3 (MAS related GPR family member X3) #2: total luciferase, z-score = 0.355; total luciferase, % of control = 88.9; Outcome = inactive
MRGPRX3 (MAS related GPR family member X3) #3: total luciferase, z-score = -0.261; total luciferase, % of control = 76.7; Outcome = inactive
ELF4 (E74 like ETS transcription factor 4) #1: total luciferase, z-score = -0.271; total luciferase, % of control = 76.5; Outcome = inactive
ELF4 (E74 like ETS transcription factor 4) #2: total luciferase, z-score = 0.78; total luciferase, % of control = 97.4; Outcome = inactive
ELF4 (E74 like ETS transcription factor 4) #3: total luciferase, z-score = -0.185; total luciferase, % of control = 78.2; Outcome = inactive

An excerpt from above, showing only “total luciferase, z-score”:
ELF4 (E74 like ETS transcription factor 4) #2: 0.78
ELF4 (E74 like ETS transcription factor 4) #3: -0.185
